Some results were stated once for a whole list of compounds, not compound by compound. At least one structure is not confirmed: it was looked up by name or label, or the drawing left a doubt.
How the values were obtained:
Assay type in all cases: in vivo
Alopecurus myosuroides [1] = assay: Herbicidal pre-emergence action; details: 320 g/ha of a.i., about 3 weeks
Avena fatua [2] = assay: Herbicidal pre-emergence action; details: 320 g/ha of a.i., about 3 weeks
Echinocloa crus-galli [3] = assay: Herbicidal pre-emergence action; details: 320 g/ha of a.i., about 3 weeks
Lolium multiflorum [4] = assay: Herbicidal pre-emergence action; details: 320 g/ha of a.i., about 3 weeks
Setaria viridis [5] = assay: Herbicidal pre-emergence action; details: 320 g/ha of a.i., about 3 weeks
Alopecurus myosuroides [6] = assay: Herbicidal post-emergence action; details: 320 g/ha, about 3 weeks
Avena fatua [7] = assay: Herbicidal post-emergence action; details: 320 g/ha, about 3 weeks
Echinocloa crus-galli [8] = assay: Herbicidal post-emergence action; details: 320 g/ha, about 3 weeks
Lolium multiflorum [9] = assay: Herbicidal post-emergence action; details: 320 g/ha, about 3 weeks
Setaria viridis [10] = assay: Herbicidal post-emergence action; details: 320 g/ha, about 3 weeks

Measured: herbicidal activity in percent

Cn1nc(-c2ccc(Cl)cc2)nc1C1=C(O)C2(CCOCC2)NC1=O [Example I-1-a3-3]
≥ 80%: all assays above

CCn1nc(-c2ccc(Cl)cc2)nc1C1=C(O)C2(CCOCC2)NC1=O [Example I-1-a3-4]
≥ 80%: all assays above

CCn1nc(-c2ccc(F)cc2)nc1C1=C(O)C2CCCN2C1=O (stereo not drawn) [Example I-1-a4-2]
≥ 80%: all assays above

Cn1nc(-c2ccc(Cl)cc2)nc1C1=C(O)C2CCCN2C1=O (stereo not drawn) [Example I-1-a4-3]
≥ 80%: all assays above

CCn1nc(-c2ccc(Cl)cc2)nc1C1=C(O)C2CCCN2C1=O (stereo not drawn) [Example I-1-a4-4]
≥ 80%: all assays above

CC1CCC2(CC1)NC(=O)C(c1nc(-c3ccc(Cl)cc3)nn1C)=C2O (stereo not drawn) [Example I-1-a7-3]
≥ 80%: all assays above

Cn1nc(-c2ccc(Cl)cc2)nc1C1=C(O)C2(CCC(C(F)(F)F)CC2)NC1=O (stereo not drawn) [Example I-1-a8-3]
≥ 80%: all assays above

CCON1CCC2(CC1)NC(=O)C(c1nc(-c3ccc(Cl)cc3)nn1C)=C2O [Example I-1-a9-3]
≥ 80%: all assays above

CON1CCC2(CC1)NC(=O)C(c1nc(-c3ccc(Cl)cc3)nn1C)=C2O [Example I-1-a10-3]
≥ 80%: all assays above

From patent US9198432B2, “1,2,4-triazolyl-substituted ketoenols” (BAYER INTELLECTUAL PROPERTY GMBH, priority 2011, dated 2015)
